Targets, with sequences 5′ to 3′:
SAM-II: SAM-II riboswitch RNA pseudoknot, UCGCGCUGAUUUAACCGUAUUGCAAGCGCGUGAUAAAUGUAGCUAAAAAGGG. About 21,000 compounds screened, about 200 hits.
TPP: TPP riboswitch RNA three-way junction, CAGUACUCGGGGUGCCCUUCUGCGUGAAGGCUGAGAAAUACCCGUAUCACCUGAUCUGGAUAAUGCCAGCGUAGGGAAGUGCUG. About 24,000 compounds screened, about 160 hits.
PreQ1: PreQ1 riboswitch RNA pseudoknot, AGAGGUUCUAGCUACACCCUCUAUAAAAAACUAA. From B. subtilis. About 24,000 compounds screened, about 170 hits.

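Each compound is printed as two spots on a slide made to bind it covalently, so it has no test concentration; the read-out is fluorescence of the bound, labelled oligonucleotide. The data file lists only calls. An earlier report of the laboratory on the PreQ1, TPP and SAM-II riboswitches (doi:10.1038/s41467-019-09493-3) used 1 µM RNA for 2 h and required a mean Z-score above 3 (spot signal-to-noise against the whole library), a score well above that on a control array, and duplicate spots agreeing (coefficient of variation under 100); it then also set aside compounds that hit other targets, which this list keeps. The cut-offs behind this list may differ. The calls come from the array alone, and fixing a compound to the slide can hide its binding.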
A compound is marked hit if it was called a hit and no hit if it was screened but was not.
This is an unselected part of the compounds tested.
A target missing from an entry has no call listed here.

With CSc1ncccc1C(=O)NCc1cc2n(n1)CCNC2 the screen gave SAM-II: no hit; TPP: no hit; PreQ1: no hit.
With CN(C)[C@H]1CCCCN(Cc2ccc(OCCO)cc2)C1 the screen gave SAM-II: no hit; TPP: no hit; PreQ1: no hit.
With Cn1ncc2c(Nc3ccc([N+](=O)[O-])cc3)nc(Cl)nc21 the screen gave SAM-II: no hit; TPP: no hit; PreQ1: no hit.
With CCOc1ncccc1C(=O)N1CC[C@@H](c2sccc2C)[C@H](O)C1 the screen gave SAM-II: no hit; TPP: no hit; PreQ1: no hit.
With CCOC(=O)C1CCN(c2c(NCCCN3CCCC3)c(=O)c2=O)CC1 the screen gave SAM-II: no hit; TPP: no hit; PreQ1: no hit.
With N#Cc1c(C2CCCNC2)cc(-c2ccc(Cl)c(Cl)c2)nc1N (stereo not drawn) the screen gave SAM-II: hit; TPP: hit; PreQ1: hit.
With N[C@@H](Cc1ccccc1)c1nnc(SCc2ccc(Cl)cc2)o1 the screen gave SAM-II: no hit; TPP: no hit; PreQ1: no hit.
With Cc1ccc2cc(-c3noc(C)n3)c(NCc3cc(F)ccc3F)nc2c1 the screen gave TPP: no hit; PreQ1: no hit.
With CCc1ccc(CNC2=NS(=O)(=O)C(c3ccc(OC)cc3)=C2C)cc1 the screen gave TPP: no hit; PreQ1: no hit.
With COc1ccccc1-c1nc2c(c(SC)n1)Cc1c(CO)cnc(C)c1O2 the screen gave TPP: no hit; PreQ1: no hit.
With N#Cc1c(-c2cccn2-c2ccncc2)cc(C2CC2)nc1N the screen gave SAM-II: no hit; TPP: no hit; PreQ1: no hit.
With CCOCc1cnc(C)nc1NCC(=O)c1c(C)[nH]c2ccccc12 the screen gave SAM-II: no hit; TPP: no hit; PreQ1: no hit.
With O=S(=O)(c1ccc(F)cc1)c1nc(-c2ccc(Cl)cc2)oc1NCC1CCCO1 (stereo not drawn) the screen gave TPP: no hit; PreQ1: no hit.
With CCC1(CO)CCCN(CCC(=O)NCc2cccc(Cl)c2)C1 (stereo not drawn) the screen gave SAM-II: no hit; TPP: no hit; PreQ1: no hit.
With NCc1ccc(-c2nc(-c3ccc(F)c(F)c3)nn2CCO)cc1 the screen gave SAM-II: hit; TPP: hit; PreQ1: hit.
With CCOc1ccc(NC(=O)Nc2cc(C(C)C)ccc2C)cc1 the screen gave SAM-II: no hit; TPP: no hit; PreQ1: no hit.
With Cc1cc(C)n(CCOc2nonc2N)n1 the screen gave SAM-II: no hit; TPP: no hit; PreQ1: no hit.
With Cc1cc(C)cc(NC2=C(C(N)=O)S(=O)(=O)c3ccccc32)c1 the screen gave TPP: no hit; PreQ1: no hit.
With CN1CCC(C2CCN(c3cc(N)nc(N(C)C)n3)CC2)CC1 the screen gave SAM-II: no hit; TPP: no hit; PreQ1: no hit.
With Cc1ccc2nc(-c3cccs3)c(NC3CCCCC3)n2c1 the screen gave SAM-II: no hit; TPP: no hit; PreQ1: no hit.
With CCCCSc1cc(=O)nc(N)[nH]1 the screen gave SAM-II: no hit; TPP: no hit; PreQ1: no hit.
With O=C(c1ccsc1)N1CC[C@@H](c2ccc3c(c2)OCO3)[C@H](O)C1 the screen gave SAM-II: no hit; TPP: no hit; PreQ1: no hit.
With Cc1ccsc1[C@@H]1CCN(C(=O)COc2ccc3c(c2)OCO3)C[C@H]1O the screen gave SAM-II: no hit; TPP: no hit; PreQ1: no hit.
With Cn1c(C(=O)N2CCC3(CC2)OCCCC3O)cc(=O)n(C)c1=O (stereo not drawn) the screen gave SAM-II: no hit; TPP: no hit; PreQ1: no hit.
With CCN(CC(O)c1cccc(O)c1)C(=O)c1cnc(CN2CCCC2)s1 (stereo not drawn) the screen gave SAM-II: no hit; TPP: no hit; PreQ1: no hit.
With O=C(NCc1cccs1)c1nn(-c2ccccc2Cl)nc1CO the screen gave TPP: no hit; PreQ1: no hit.
With O=C1NC(c2nc(-c3c[nH]c4ccccc34)nn2CCO)Cc2ccccc21 (stereo not drawn) the screen gave SAM-II: no hit; TPP: no hit; PreQ1: no hit.
With O=C(NCC(F)F)c1ccc(S(=O)(=O)NC[C@@H]2CCCN2)cc1 the screen gave SAM-II: no hit; TPP: no hit; PreQ1: no hit.
With Cc1cc(Cl)ccc1OCCCC(=O)NO the screen gave SAM-II: no hit; TPP: no hit; PreQ1: no hit.
With Cc1cnc(C(=O)O)c[n+]1[O-] the screen gave SAM-II: no hit; TPP: no hit; PreQ1: no hit.
With O=C(NCCc1cnc2ccccn12)c1cc2n(n1)CCNC2 the screen gave SAM-II: no hit; TPP: no hit; PreQ1: no hit.
With Cc1ccc(Nc2nc(C)cc(N3CCN(C(=O)C4CCCCC4)CC3)n2)cc1 the screen gave TPP: no hit; PreQ1: no hit.
With Nc1c(C(=O)Nc2ccccc2)oc2ccccc12 the screen gave SAM-II: no hit; TPP: no hit; PreQ1: no hit.
With CCCN(CCC)Cc1ccc(C(=O)N2CCOC(CCN)C2)cc1 (stereo not drawn) the screen gave SAM-II: no hit; TPP: no hit; PreQ1: no hit.
With CCN(CC)CCn1c(=O)c(Cc2ccc(OC)cc2)nc2ccccc21 the screen gave SAM-II: no hit; TPP: no hit; PreQ1: no hit.
With O=C(OC1CCCCC1)c1ccccc1C(=O)OC1CCCCC1 the screen gave SAM-II: no hit; TPP: no hit; PreQ1: no hit.
With COc1cc(NC(C)=O)c2ncccc2c1NC(C)=O the screen gave SAM-II: no hit; TPP: no hit; PreQ1: no hit.
With Cc1nc(-c2cc3cccc(C)c3nc2NCc2ccccn2)no1 the screen gave TPP: no hit; PreQ1: no hit.
With CC=CC1=C(C(=O)O)N2C(=O)[C@@H](NC(=O)[C@H](N)c3ccc(O)cc3)[C@H]2SC1.O the screen gave SAM-II: no hit; TPP: no hit; PreQ1: no hit.
With O=C1CCC2(CCNCC2)CN1CC(c1ccccc1F)N1CCCC1 (stereo not drawn) the screen gave SAM-II: no hit; TPP: no hit; PreQ1: no hit.
With CCc1ccc(CNCCc2ccc(OC)cc2)cc1 the screen gave SAM-II: no hit; TPP: no hit; PreQ1: no hit.
With CN(c1ncccc1C(=O)N1CCOC2(CNCCOC2)C1)C1CCCCC1 (stereo not drawn) the screen gave SAM-II: no hit; TPP: no hit; PreQ1: no hit.

Some entries from above, unchanged:

Compound,SAM-II,TPP,PreQ1
CN(c1ncccc1C(=O)N1CCOC2(CNCCOC2)C1)C1CCCCC1 (stereo not drawn),no hit,no hit,no hit
CCOC(=O)C1CCN(c2c(NCCCN3CCCC3)c(=O)c2=O)CC1,no hit,no hit,no hit
CSc1ncccc1C(=O)NCc1cc2n(n1)CCNC2,no hit,no hit,no hit
CN(C)[C@H]1CCCCN(Cc2ccc(OCCO)cc2)C1,no hit,no hit,no hit

Calls as published in the ROBIN set (doi:10.1002/anie.202211358).